# Source: the supplement of paper PMC10849652
# Sequences of proteins named here, by UniProt entry; tags and fusion partners are left off. A change or cut given only in a name is not applied to a line headed by its entry.
# UniProt P40939: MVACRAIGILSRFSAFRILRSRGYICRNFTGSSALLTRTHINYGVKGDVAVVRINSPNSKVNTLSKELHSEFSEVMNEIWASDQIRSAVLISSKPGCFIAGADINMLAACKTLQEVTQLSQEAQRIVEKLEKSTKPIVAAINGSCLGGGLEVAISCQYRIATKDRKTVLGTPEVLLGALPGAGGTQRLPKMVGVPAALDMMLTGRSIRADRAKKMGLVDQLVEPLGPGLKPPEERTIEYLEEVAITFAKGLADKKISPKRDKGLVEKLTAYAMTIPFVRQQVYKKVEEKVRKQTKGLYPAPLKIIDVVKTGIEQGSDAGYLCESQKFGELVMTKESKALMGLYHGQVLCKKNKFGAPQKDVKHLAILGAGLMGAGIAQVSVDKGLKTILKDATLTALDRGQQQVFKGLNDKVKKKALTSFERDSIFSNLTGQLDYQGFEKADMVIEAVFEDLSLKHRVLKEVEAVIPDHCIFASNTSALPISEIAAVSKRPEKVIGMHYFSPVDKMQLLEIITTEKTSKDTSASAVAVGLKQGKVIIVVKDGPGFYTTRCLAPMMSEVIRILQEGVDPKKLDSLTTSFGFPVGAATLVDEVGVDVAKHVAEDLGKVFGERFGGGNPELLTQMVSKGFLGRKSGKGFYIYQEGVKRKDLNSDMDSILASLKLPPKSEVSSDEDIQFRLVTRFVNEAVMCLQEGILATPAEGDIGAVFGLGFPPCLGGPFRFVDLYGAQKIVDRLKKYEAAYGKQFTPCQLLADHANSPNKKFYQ
# UniProt Q92664: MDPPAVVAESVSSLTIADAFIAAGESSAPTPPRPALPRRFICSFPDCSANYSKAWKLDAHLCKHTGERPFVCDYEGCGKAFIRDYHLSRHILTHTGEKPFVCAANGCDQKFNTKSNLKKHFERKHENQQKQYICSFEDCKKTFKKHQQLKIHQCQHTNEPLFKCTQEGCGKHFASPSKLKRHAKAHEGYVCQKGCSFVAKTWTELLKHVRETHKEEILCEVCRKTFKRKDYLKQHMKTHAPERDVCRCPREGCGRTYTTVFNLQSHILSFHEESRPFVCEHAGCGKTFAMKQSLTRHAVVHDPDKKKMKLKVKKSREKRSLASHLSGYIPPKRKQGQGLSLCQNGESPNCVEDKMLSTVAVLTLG
# UniProt Q92759: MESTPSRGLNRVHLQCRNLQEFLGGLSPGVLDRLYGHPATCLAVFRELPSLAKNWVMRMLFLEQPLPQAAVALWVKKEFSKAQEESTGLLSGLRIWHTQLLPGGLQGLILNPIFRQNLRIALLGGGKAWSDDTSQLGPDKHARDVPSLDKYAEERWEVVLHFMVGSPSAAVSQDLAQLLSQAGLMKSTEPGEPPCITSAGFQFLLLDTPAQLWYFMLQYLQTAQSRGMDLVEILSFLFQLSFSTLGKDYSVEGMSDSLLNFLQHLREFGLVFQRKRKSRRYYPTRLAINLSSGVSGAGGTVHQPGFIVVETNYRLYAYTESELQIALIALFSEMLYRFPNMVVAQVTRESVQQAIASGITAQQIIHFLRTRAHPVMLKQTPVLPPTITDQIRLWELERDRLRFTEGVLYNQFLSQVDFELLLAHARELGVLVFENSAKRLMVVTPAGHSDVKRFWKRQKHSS
# UniProt P62993, whole entry, looked up: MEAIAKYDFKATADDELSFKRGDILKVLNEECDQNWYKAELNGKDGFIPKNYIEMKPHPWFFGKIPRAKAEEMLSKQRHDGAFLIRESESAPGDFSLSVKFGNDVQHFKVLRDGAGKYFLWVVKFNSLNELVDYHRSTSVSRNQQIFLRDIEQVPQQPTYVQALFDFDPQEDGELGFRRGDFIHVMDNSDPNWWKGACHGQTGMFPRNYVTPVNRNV
# UniProt Q9NVX0: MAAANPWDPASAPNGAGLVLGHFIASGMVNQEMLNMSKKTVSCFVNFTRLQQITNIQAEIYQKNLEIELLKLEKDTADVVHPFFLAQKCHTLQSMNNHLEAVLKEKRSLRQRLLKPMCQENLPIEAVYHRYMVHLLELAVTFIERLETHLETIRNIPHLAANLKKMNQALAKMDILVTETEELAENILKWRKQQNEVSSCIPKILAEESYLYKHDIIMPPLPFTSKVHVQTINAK
# UniProt Q99871: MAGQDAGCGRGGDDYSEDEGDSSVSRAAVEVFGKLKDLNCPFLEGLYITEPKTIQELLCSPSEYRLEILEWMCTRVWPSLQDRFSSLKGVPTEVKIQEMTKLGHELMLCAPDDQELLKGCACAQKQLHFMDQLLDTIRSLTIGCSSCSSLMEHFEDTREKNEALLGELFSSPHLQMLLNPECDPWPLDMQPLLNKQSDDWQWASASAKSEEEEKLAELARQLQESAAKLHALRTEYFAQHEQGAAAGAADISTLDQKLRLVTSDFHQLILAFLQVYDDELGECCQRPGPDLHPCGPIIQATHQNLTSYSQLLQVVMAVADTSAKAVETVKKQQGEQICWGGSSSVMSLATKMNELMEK
# UniProt Q7Z4V5: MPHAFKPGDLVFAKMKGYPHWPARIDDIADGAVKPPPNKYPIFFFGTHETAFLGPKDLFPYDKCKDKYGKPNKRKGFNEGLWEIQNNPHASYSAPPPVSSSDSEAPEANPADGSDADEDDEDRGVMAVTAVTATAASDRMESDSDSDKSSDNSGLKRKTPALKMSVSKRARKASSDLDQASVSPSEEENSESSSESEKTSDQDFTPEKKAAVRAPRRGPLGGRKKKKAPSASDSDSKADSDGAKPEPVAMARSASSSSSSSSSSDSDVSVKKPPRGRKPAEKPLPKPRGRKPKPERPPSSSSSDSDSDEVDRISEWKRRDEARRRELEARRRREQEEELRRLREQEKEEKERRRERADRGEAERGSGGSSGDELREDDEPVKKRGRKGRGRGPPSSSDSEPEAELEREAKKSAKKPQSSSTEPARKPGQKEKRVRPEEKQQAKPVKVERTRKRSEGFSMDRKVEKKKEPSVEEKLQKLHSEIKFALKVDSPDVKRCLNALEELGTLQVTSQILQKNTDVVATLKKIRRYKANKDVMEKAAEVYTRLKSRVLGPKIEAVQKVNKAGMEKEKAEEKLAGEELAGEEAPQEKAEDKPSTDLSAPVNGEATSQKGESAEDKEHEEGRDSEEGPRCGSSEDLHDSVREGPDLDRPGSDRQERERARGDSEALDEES
# UniProt P36969, whole entry, looked up: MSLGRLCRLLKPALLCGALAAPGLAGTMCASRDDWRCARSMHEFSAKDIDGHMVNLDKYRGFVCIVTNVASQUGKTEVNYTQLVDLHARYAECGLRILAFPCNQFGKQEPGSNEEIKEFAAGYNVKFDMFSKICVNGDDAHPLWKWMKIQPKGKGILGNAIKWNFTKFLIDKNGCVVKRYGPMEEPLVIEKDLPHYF
# UniProt P16403, whole entry, looked up: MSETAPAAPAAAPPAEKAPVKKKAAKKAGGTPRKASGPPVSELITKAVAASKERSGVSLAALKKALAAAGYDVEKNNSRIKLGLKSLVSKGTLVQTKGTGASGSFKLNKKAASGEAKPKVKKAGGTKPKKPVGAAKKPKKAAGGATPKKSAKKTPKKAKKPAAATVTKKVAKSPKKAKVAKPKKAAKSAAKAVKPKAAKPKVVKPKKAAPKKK
# UniProt Q9UBQ7: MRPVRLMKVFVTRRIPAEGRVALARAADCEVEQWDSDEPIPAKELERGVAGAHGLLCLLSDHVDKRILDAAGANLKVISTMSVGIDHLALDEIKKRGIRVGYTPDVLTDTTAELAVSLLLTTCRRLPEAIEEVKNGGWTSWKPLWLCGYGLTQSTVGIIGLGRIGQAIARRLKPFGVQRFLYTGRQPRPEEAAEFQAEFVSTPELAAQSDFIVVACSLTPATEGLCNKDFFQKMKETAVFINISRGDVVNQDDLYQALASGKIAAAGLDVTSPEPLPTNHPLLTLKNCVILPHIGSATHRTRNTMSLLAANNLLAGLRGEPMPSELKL
# UniProt Q9H6D7: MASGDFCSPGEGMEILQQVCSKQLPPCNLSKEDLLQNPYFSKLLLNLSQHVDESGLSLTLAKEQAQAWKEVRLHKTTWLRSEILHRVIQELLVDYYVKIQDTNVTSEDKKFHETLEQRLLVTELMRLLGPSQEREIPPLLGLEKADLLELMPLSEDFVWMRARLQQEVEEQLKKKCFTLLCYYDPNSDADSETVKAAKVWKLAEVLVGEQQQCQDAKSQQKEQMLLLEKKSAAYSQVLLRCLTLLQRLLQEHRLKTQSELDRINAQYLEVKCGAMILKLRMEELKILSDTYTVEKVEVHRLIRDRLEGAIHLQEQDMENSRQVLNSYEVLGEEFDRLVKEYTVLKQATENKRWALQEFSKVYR
# UniProt P48637: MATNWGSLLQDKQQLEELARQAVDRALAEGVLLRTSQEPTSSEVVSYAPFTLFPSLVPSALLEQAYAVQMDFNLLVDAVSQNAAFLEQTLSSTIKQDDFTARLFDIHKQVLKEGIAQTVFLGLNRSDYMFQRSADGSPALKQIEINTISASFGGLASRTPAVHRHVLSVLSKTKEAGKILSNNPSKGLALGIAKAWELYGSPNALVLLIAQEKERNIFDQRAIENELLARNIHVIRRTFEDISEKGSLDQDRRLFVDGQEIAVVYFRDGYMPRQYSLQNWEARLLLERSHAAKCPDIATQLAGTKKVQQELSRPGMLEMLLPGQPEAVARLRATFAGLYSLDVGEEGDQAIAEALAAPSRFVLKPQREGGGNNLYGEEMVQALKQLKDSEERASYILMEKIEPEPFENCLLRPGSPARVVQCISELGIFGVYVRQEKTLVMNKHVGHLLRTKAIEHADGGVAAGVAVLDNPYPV
# UniProt P69891: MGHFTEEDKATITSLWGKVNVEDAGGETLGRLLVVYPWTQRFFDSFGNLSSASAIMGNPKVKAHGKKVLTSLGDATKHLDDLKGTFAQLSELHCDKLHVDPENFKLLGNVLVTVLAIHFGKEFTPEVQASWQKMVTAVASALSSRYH
# UniProt P0C0S5, whole entry, looked up: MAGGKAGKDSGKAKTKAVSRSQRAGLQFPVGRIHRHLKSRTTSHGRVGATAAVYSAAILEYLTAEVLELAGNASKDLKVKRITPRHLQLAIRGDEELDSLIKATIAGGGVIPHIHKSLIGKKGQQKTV
# UniProt P49841: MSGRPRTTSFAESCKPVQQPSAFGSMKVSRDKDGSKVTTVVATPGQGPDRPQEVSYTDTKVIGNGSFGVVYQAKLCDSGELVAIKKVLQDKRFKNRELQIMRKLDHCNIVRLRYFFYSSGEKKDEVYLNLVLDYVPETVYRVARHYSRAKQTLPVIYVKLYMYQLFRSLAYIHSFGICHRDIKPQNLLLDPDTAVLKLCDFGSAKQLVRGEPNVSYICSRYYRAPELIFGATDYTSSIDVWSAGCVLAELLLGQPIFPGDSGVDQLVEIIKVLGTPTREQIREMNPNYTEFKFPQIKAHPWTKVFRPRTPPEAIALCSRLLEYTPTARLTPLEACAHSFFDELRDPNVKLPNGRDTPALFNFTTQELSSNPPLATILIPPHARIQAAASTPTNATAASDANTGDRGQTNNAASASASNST
# UniProt Q969F1: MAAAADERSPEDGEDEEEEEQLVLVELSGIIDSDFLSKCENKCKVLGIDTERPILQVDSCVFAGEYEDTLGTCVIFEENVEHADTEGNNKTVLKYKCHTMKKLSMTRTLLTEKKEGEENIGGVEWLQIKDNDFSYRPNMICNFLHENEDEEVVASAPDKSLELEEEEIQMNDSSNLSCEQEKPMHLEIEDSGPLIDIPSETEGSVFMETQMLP
# UniProt Q8NEC7: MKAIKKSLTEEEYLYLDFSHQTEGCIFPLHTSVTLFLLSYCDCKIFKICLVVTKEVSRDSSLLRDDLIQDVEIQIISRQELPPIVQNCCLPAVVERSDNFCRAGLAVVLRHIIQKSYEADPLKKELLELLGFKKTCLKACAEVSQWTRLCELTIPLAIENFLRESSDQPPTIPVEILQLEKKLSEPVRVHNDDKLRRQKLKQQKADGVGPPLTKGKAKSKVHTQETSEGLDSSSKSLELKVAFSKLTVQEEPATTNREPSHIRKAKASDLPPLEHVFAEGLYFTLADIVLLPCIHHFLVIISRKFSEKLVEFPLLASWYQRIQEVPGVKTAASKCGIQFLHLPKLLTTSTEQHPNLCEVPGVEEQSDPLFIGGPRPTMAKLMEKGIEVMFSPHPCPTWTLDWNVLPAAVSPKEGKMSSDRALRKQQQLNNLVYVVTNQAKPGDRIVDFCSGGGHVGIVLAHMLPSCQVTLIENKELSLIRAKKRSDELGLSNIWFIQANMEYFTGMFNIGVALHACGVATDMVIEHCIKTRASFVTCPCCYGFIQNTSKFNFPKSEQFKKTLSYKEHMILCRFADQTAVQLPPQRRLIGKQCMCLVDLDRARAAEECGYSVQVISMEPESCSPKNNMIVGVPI
# UniProt P53701: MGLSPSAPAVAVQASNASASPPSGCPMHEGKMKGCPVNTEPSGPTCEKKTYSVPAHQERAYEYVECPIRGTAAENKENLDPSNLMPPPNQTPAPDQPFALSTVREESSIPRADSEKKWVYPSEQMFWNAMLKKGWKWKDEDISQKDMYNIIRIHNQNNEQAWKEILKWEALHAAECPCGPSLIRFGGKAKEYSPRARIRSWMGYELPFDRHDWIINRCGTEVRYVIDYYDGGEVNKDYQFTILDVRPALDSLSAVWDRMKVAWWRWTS
# This is one part of the list.
# Key:
# Test in all cases: log2 fold change, soluble protein after heating vs DMSO (PISA); higher = thermal stabilisation; K562 lysate, 10 uM; active = over 0.2 and 3.5 SD of the protein, either way, in both replicates (recomputed)
# vemurafenib = compound: CCCS(=O)(=O)Nc1ccc(F)c(C(=O)c2c[nH]c3ncc(-c4ccc(Cl)cc4)cc23)c1F [vemurafenib]
# Outline: (§1)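 The values are log-two fold changes in thermal stability compared with solvent controls and come from duplicates. They were obtained by TMTpro 16plex LC-MS/MS, with channel sums equalised, on the supernatant after 21,000xg for 90 min. That supernatant came from crude K562 extract at 1 mg/mL protein treated with 10 μM compound for 30 min, heated for 3 min across 48°C-58°C, pooled and brought to 0.5% NP-40 at 4°C.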
# [1] = compound: CCCS(=O)(=O)Nc1ccc(F)c(C(=O)c2c[nH]c3ncc(Cl)cc23)c1F
# Outline: as §1
# barasertib = compound: CCN(CCCOc1ccc2c(Nc3cc(CC(=O)Nc4cccc(F)c4)[nH]n3)ncnc2c1)CCOP(=O)(O)O [barasertib]
# Outline: as §1
# [2] = compound: CC[C@@H]1C(=O)N(C)c2cnc(Nc3ccc(C(=O)NC4CCN(C)CC4)cc3OC)nc2N1C1CCCC1
# Outline: as §1
# volasertib = compound: CC[C@@H]1C(=O)N(C)c2cnc(Nc3ccc(C(=O)N[C@H]4CC[C@H](N5CCN(CC6CC6)CC5)CC4)cc3OC)nc2N1C(C)C [volasertib]
# Outline: as §1
# [3] = compound: CCn1c(C(=O)N(C2CC2)C2CC2)cc2c3c(ncn3C)c(Nc3cc(C)n(C)n3)nc21
# Outline: as §1
# [4] = compound: CCn1cc(-c2ccnc3[nH]c(-c4cccc(CN(C)C)c4)cc23)c(-c2ccc(NC(=O)N(C)C)cc2)n1
# Outline: as §1
# [5] = compound: CN1CCC(CNc2ccc3ncc(-c4cccc(OC(F)(F)F)c4)n3n2)CC1
# Outline: as §1
# saracatinib = compound: CN1CCN(CCOc2cc(OC3CCOCC3)c3c(Nc4c(Cl)ccc5c4OCO5)ncnc3c2)CC1 [saracatinib]
# Outline: as §1
# sotrastaurin = compound: CN1CCN(c2nc(C3=C(c4c[nH]c5ccccc45)C(=O)NC3=O)c3ccccc3n2)CC1 [sotrastaurin]
# Outline: as §1
Target,log2 fold change (vemurafenib),log2 fold change [1],log2 fold change (barasertib),log2 fold change [2],log2 fold change (volasertib),log2 fold change [3],log2 fold change [4],log2 fold change [5],log2 fold change (saracatinib),log2 fold change (sotrastaurin)
GTPBP3 isoform 2 (UniProt Q969Y2),inactive: -0.115,inactive: 0.035,inactive: 0.088,inactive: -0.283,inactive: 0.073,inactive: 0.026,inactive: -0.048,inactive: -0.055,inactive: 0.002,inactive: 0.059
HBD (UniProt P02042),inactive: 0.01,inactive: -0.03,inactive: 0.084,inactive: -0.041,inactive: 0.072,inactive: -0.002,inactive: 0.033,inactive: -0.027,inactive: 0.007,inactive: -0.059
HADHA (UniProt P40939),inactive: 0.019,inactive: -0.002,inactive: -0.103,inactive: -0.024,inactive: 0.09,inactive: -0.036,inactive: 0.012,inactive: 0.071,inactive: -0.04,inactive: -0.025
GSN (UniProt P06396),inactive: -0.036,inactive: 0.005,inactive: 0.014,inactive: 0.016,inactive: -0.053,inactive: -0.002,inactive: -0.046,inactive: 0.015,inactive: -0.022,inactive: 0.003
HEATR3 (UniProt Q7Z4Q2),inactive: 0.025,inactive: 0.026,inactive: 0.026,inactive: -0.048,inactive: -0.028,inactive: 0.032,inactive: -0.064,inactive: -0.089,inactive: -0.019,inactive: 0.026
GTF3A (UniProt Q92664),inactive: -0.064,inactive: -0.028,inactive: 0.009,inactive: 0.056,inactive: -0.019,inactive: -0.143,inactive: 0.097,inactive: -0.075,inactive: 0.064,inactive: -0.18
GTF2H4 (UniProt Q92759),inactive: -0.047,inactive: 0.007,inactive: 0.039,inactive: -0.099,inactive: -0.046,inactive: 0.028,inactive: 0.063,inactive: -0.075,inactive: 0.029,inactive: 0.034
GRB2 (UniProt P62993),inactive: 0.004,inactive: -0.022,inactive: -0.039,inactive: 0.042,inactive: 0.014,inactive: -0.035,inactive: -0.002,inactive: 0.002,inactive: 0.002,inactive: 0.016
HBS1L (UniProt Q9Y450),inactive: 0.036,inactive: 0.018,inactive: -0.014,inactive: -0.071,inactive: -0.03,inactive: -0.004,inactive: 0.034,inactive: -0.045,inactive: 0.021,inactive: 0.022
HAUS2 (UniProt Q9NVX0),inactive: -0.076,inactive: -0.005,inactive: 0.097,inactive: 0.018,inactive: 0.038,inactive: 0.036,inactive: 0.141,inactive: -0.089,inactive: 0.048,inactive: -0.007
HAUS7 isoform 2 (UniProt Q99871),inactive: -0.054,inactive: 0.006,inactive: 0.002,inactive: 0.005,inactive: -0.06,inactive: -0.021,inactive: 0.073,inactive: -0.173,inactive: 0.044,inactive: -0.025
HDGFL2 isoform 2 (UniProt Q7Z4V5),inactive: 0.016,inactive: -0.003,inactive: -0.01,inactive: 0.064,inactive: 0.052,inactive: -0.066,active: -0.417,inactive: 0.196,inactive: -0.015,inactive: 0.038
HAGH (UniProt Q16775),inactive: -0.001,inactive: 0.008,inactive: 0.003,inactive: 0.013,inactive: 0.027,inactive: -0.023,inactive: -0.042,inactive: 0.097,inactive: 0.058,inactive: -0.004
GPX4 (UniProt P36969),inactive: -0.003,inactive: 0.025,inactive: -0.002,inactive: -0.068,inactive: -0.038,inactive: 0.013,inactive: 0.027,inactive: -0.079,inactive: 0.02,inactive: 0.012
H1-2 (UniProt P16403),inactive: 0.011,inactive: -0.024,inactive: -0.004,inactive: -0.001,inactive: -0.008,inactive: -0.033,inactive: -0.02,inactive: 0.035,inactive: -0.003,inactive: 0.016
GRHPR (UniProt Q9UBQ7),inactive: 0.011,inactive: 0.013,inactive: -0.006,inactive: 0.041,inactive: -0.013,inactive: -0.011,inactive: 0.153,inactive: -0.1,inactive: -0.017,inactive: -0.027
HAUS4 (UniProt Q9H6D7),inactive: 0.007,inactive: 0.044,inactive: 0.107,inactive: -0.047,inactive: -0.039,inactive: 0.015,inactive: -0.045,inactive: -0.04,inactive: 0.022,inactive: 0.02
HDAC5 isoform 3 (UniProt Q9UQL6),inactive: -0.081,inactive: 0.036,inactive: -0.034,inactive: 0.059,inactive: 0.026,inactive: -0.046,inactive: -0.046,inactive: 0.06,inactive: -0.012,inactive: 0.035
GSK3A (UniProt P49840),inactive: -0.013,inactive: 0.006,inactive: -0.04,inactive: -0.015,inactive: -0.01,inactive: 0.026,inactive: -0.133,inactive: 0.154,inactive: 0.01,active: 0.535
GSS (UniProt P48637),inactive: -0.022,inactive: 0.012,inactive: -0.027,inactive: 0.008,inactive: 0.016,inactive: 0.033,inactive: -0.051,inactive: 0.037,inactive: 0.01,inactive: 0.012
HBG1 (UniProt P69891),inactive: 0.006,inactive: -0.003,inactive: 0.079,inactive: 0.023,inactive: 0.051,inactive: -0.001,inactive: -0.015,inactive: -0.041,inactive: -0.007,inactive: -0.047
H2AZ1 (UniProt P0C0S5),inactive: -0.004,inactive: 0.012,inactive: 0.001,inactive: 0.009,inactive: -0.005,inactive: 0.021,inactive: 0.031,inactive: 0,inactive: -0.026,inactive: -0.053
HAUS1 (UniProt Q96CS2),inactive: -0.001,inactive: 0.007,inactive: 0.082,inactive: 0.031,inactive: -0.007,inactive: 0.005,inactive: -0.029,inactive: -0.084,inactive: 0.001,inactive: -0.012
GSK3B isoform 2 (UniProt P49841),inactive: -0.009,inactive: 0.038,inactive: 0.026,inactive: -0.015,inactive: -0.093,inactive: -0.011,inactive: -0.013,inactive: 0.096,inactive: -0.049,inactive: 0.601
GTF2I (UniProt P78347),inactive: -0.004,inactive: 0.031,inactive: 0.034,inactive: -0.055,inactive: -0.036,inactive: 0.005,inactive: -0.054,inactive: -0.033,inactive: 0.014,inactive: 0.01
GTF3C6 (UniProt Q969F1),inactive: -0.041,inactive: -0.01,inactive: -0.019,inactive: 0.039,inactive: 0.017,inactive: 0.016,inactive: 0.164,inactive: -0.096,inactive: 0.003,inactive: 0.008
GSTCD (UniProt Q8NEC7),inactive: 0.028,inactive: 0.057,inactive: -0.039,inactive: -0.018,inactive: -0.05,inactive: 0.011,inactive: -0.055,inactive: -0.015,inactive: 0.034,inactive: 0.037
HCCS (UniProt P53701),inactive: 0.054,inactive: 0.036,inactive: -0.014,inactive: 0.02,inactive: 0.013,inactive: 0.01,inactive: -0.027,inactive: 0.002,inactive: 0.018,inactive: -0.023
HEATR5B (UniProt Q9P2D3),inactive: 0.03,inactive: 0.001,inactive: 0.112,inactive: -0.012,inactive: -0.037,inactive: -0.093,inactive: 0.047,inactive: -0.037,inactive: -0.019,inactive: -0.017
H4C1 (UniProt P62805),inactive: -0.013,inactive: 0.087,inactive: 0.079,inactive: -0.055,inactive: 0.027,inactive: 0.079,inactive: 0.268,inactive: -0.01,inactive: -0.094,inactive: -0.059

# 2 entries from above, with bars between the fields.
Target | log2 fold change (vemurafenib) | log2 fold change [1] | log2 fold change (barasertib) | log2 fold change [2] | log2 fold change (volasertib) | log2 fold change [3] | log2 fold change [4] | log2 fold change [5] | log2 fold change (saracatinib) | log2 fold change (sotrastaurin)
HADHA (UniProt P40939) | inactive: 0.019 | inactive: -0.002 | inactive: -0.103 | inactive: -0.024 | inactive: 0.09 | inactive: -0.036 | inactive: 0.012 | inactive: 0.071 | inactive: -0.04 | inactive: -0.025
GSN (UniProt P06396) | inactive: -0.036 | inactive: 0.005 | inactive: 0.014 | inactive: 0.016 | inactive: -0.053 | inactive: -0.002 | inactive: -0.046 | inactive: 0.015 | inactive: -0.022 | inactive: 0.003
